Measured values reported in PubChem BioAssay AID504834 (National Center for Advancing Translational Sciences (NCATS), 2011).
About 22,000 (6.9%) of roughly 320,000 compounds were called active. The shares of active, inactive and inconclusive entries below differ from those in the screen. Calls follow the shape of the dose curve; as a rule, active = well fitted inhibition curve with a large enough effect; inconclusive = small, poorly fitted or top-dose-only effect, or another doubt; inactive = no such curve, though single readings can be large or run the other way. Potencies beside an inconclusive call are fits to weak or partial responses and may not hold up.
% is scaled to controls: 0 for no effect and ±100 for the full control effect; potency is read from the fitted curve at half-maximal effect.

Assay: Primary qHTS for delayed death inhibitors of the malarial parasite plastid, 96 hour incubation
Conditions: P. falciparum luciferase reporter growth; series mostly up to 28.7 µM; activity change, negative = inhibition: at the top concentration
Outline: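 Erythrocytes infected with luciferase-expressing P. falciparum were dispensed at 2% hematocrit and 0.05% parasitemia (final), then incubated with compounds 96 hours at 37 C in 5% CO2. Luminescence after detection reagent addition reported growth.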
In the case of O=C(NC(=S)Nc1ccc2oc(-c3ccncc3)nc2c1)c1ccccc1F, the “activity change, negative = inhibition” value is reported as inactive: -22.2%.
In the case of CC(C)c1onc(C(=O)N2CCCCCC2)c1[N+](=O)[O-], the Potency is reported as inconclusive: 4.15 µM [inhibitor, single point].
For O=[N+]([O-])c1cccc(/C=N/n2cnnc2)c1, the “activity change, negative = inhibition” value was inactive: 115%.
With O=C(COc1ccccc1)Nc1cc(S(=O)(=O)N2CCOCC2)ccc1N1CCCC1 the Potency was inconclusive: 10.4 µM [inhibitor, partial curve, poor fit].
With CC(C)CCn1c(SCC(=O)N2CC(=O)Nc3ccccc32)nc2scc(-c3cccs3)c2c1=O the Potency was inconclusive: 1.17 µM [inhibitor, full curve, poor fit].
With CN(C)c1ccc(N2C(=NC(=O)c3ccccc3)SC3CS(=O)(=O)CC32)cc1 (configuration not stated) the Potency was inconclusive: 0.0738 µM [inhibitor, full curve, poor fit].
With COc1cc(C(=O)NCCNc2nc3ccc(C)cc3cc2C#N)cc(OC)c1OC the Potency was inconclusive: 18.5 µM [inhibitor, single point].
With CC12CC3CC(C)(C1)CC(NCc1ccncc1)(C3)C2 the Potency was inconclusive: 4.15 µM [inhibitor, partial curve, poor fit].
In the case of CCCCCCCn1c(NC(=O)CC)nc2ccccc21, the Potency is reported as active: 0.928 µM.
With O=C(NCCCN1CCCC1=O)c1ccccc1NS(=O)(=O)c1ccc(Br)cc1 the Potency was inconclusive: 18.5 µM [inhibitor, single point].
In the case of CCn1c2ccccc2c2cnc(N=CN(C)C)c(C#N)c21, the Potency is reported as inconclusive: 13.1 µM [inhibitor, partial curve, poor fit].
In the case of COc1cc2c3nnc(-c4ccc(F)cc4)c-3cn(Cc3cccc(C)c3)c2cc1OC, the Potency is reported as active: 0.465 µM.
For Cc1[nH]c2ccccc2c1C(=O)COC(=O)C1CCC1, the “activity change, negative = inhibition” value was inactive: -16%.
In the case of Cc1cc2cc(CCNC(=O)c3ccc(S(=O)(=O)N4CCCC4)cc3)c(=O)[nH]c2cc1C, the Potency is reported as inconclusive: 0.738 µM [inhibitor, full curve, poor fit].
With O=C(N/C(=C/c1ccco1)C(=O)N1CCOCC1)c1ccccc1Br the “activity change, negative = inhibition” value was inactive: 15.8%.
For O=C(Nc1cc(Cl)cc(Cl)c1)c1ccc(Cn2c(=O)[nH]c3ccsc3c2=O)cc1, the Potency was inconclusive: 10.4 µM [inhibitor, single point].
In the case of COCCCn1c(N)c(C(=O)OC(C)COC)c2nc3ccccc3nc21 (configuration not stated), the Potency is reported as inconclusive: 7.38 µM [inhibitor, partial curve].
In the case of O=C1c2cccc3c(Nc4ccccc4Cl)c([N+](=O)[O-])cc(c23)C(=O)N1CCO, the Potency is reported as active: 1.04 µM.
In the case of COc1cccc(-c2cc(C(F)(F)F)n3ncc(C(=O)NCC4CCCO4)c3n2)c1 (configuration not stated), the Potency is reported as inconclusive: 5.22 µM [inhibitor, partial curve].
With CNC(=S)NNC(=O)c1oc2nc(-c3ccccc3)cc(-c3ccco3)c2c1N the Potency was inconclusive: 10.4 µM [inhibitor, single point].
With Cc1ccc(S(=O)(=O)Nc2ccccc2F)cc1C(=O)OC(C)C(=O)N1CCOCC1 (configuration not stated) the “activity change, negative = inhibition” value was inactive: 9.19%.
In the case of Cc1ccc(S(=O)(=O)n2nc(C)cc2N)cc1, the Potency is reported as inconclusive: 18.5 µM [inhibitor, partial curve, poor fit].
For CCCS(=O)(=O)N1CCC(C(=O)NCc2ccc3c(c2)OCO3)CC1, the “activity change, negative = inhibition” value was inactive: -1.34%.
For O=C(OCc1ccccn1)C1CCN(C(=O)c2ccc(Cl)cc2)CC1, the “activity change, negative = inhibition” value was inactive: 9.64%.
In the case of Cc1cccc(C)c1NC(=O)CNC(=O)C(Cc1ccccc1)NC(=O)c1ccccc1 (configuration not stated), the Potency is reported as inconclusive: 9.28 µM [inhibitor, partial curve, poor fit].
In the case of COc1ccc(-c2c(-c3ccc(OC)cc3O)nc(C)nc2C(F)(F)F)cc1, the Potency is reported as inconclusive: 5.22 µM [inhibitor, partial curve, poor fit].
In the case of COc1ccc(-c2csc(NC(=O)CSCC(=O)Nc3cc(C)on3)n2)cc1OC, the Potency is reported as inconclusive: 4.15 µM [inhibitor, partial curve].
In the case of Cc1[nH]nc(N)c1N=Nc1ccc(Br)cc1, the “activity change, negative = inhibition” value is reported as inactive: 20.6%.
With COC(=O)c1c(C)oc(C)c1S(=O)(=O)Nc1ccccc1 the “activity change, negative = inhibition” value was inactive: -4.57%.
For CCSP1(=S)N=C(N2CCOCC2)C(C#N)=C2CCCN21 (configuration not stated), the Potency was inconclusive: 18.5 µM [inhibitor, single point].
In the case of CCC(NC(=O)c1ccccc1NC(=O)c1ccco1)C(=O)NC1CCCCC1 (configuration not stated), the Potency is reported as inconclusive: 4.65 µM [inhibitor, partial curve, poor fit].
For CC(CN1CCCCC1)OC(=O)c1ccc(Cl)cc1 (configuration not stated), the Potency was inconclusive: 0.415 µM [inhibitor, full curve, poor fit].
With CCN1CCN(C(=O)C(=O)c2cn(CC(=O)N3CCCC3)c3ccccc23)CC1 the Potency was inconclusive: 8.28 µM [inhibitor, partial curve, poor fit].
In the case of OCCCc1nc2n(n1)C(c1ccccc1)C=C(c1ccccc1)N2 (configuration not stated), the Potency is reported as inconclusive: 14.7 µM [inhibitor, partial curve, poor fit].
With COc1ccc(C(CNC(=O)Nc2cccc(C)c2)N2CCN(C)CC2)cc1 (configuration not stated) the Potency was inconclusive: 16.5 µM [inhibitor, partial curve, poor fit].
For Cn1cnnc1Sc1ccc(/C=C/C(=O)c2ccc(O)cc2)cc1[N+](=O)[O-], the Potency was inconclusive: 9.28 µM [inhibitor, single point].
For COC(=O)c1sc2ncccc2c1OCc1ccc(Cl)cc1, the Potency was inconclusive: 10.4 µM [inhibitor, partial curve, poor fit].
For Cc1cc(C)n(Cc2ccc(C(=O)Nc3ccc(Br)cc3C)o2)n1, the Potency was inconclusive: 9.28 µM [inhibitor, partial curve, poor fit].
With Cc1cccc(NC(=S)NC(=O)CCc2ccccc2)c1 the Potency was inconclusive: 0.0294 µM [inhibitor, full curve, poor fit].
With O=C(c1ccc(Cl)cc1)N1CCc2ccccc21 the Potency was inconclusive: 14.7 µM [inhibitor, single point].
With Cc1ccc(Cn2ncc(Cl)c(Cl)c2=O)cc1 the Potency was inconclusive: 18.5 µM [inhibitor, single point].
For CC(=O)c1cc(Cl)ccc1OCc1cccc(S(=O)(=O)N2CCOCC2)c1, the Potency was inconclusive: 0.185 µM [inhibitor, full curve, poor fit].
